Measured values as given in US6348627B1 (priority 1999, dated 2002).
Some of these results come from one statement about several compounds together.

Legend:
Format in all cases: in vivo
Pyricularia oyrzae = conditions: 150 grams per hectare; rice plants cultivar M-1; scored after 6 days
Phytophthora infestans = conditions: 150 grams per hectare; Pixie tomato plants; scored after five days
Plasmopara viticola = assay: Grape Downy Mildew (GDM) protective test; conditions: 150 grams per hectare; Delaware grape plants; seven days after inoculation
[1] = system: Erysiphe graminis (f. sp. tritici); assay: Wheat Powdery Mildew (WPM) protective test; conditions: 150 grams per hectare; wheat seedlings cultivar Fielder; rated 7 days after inoculation

| Structure (SMILES) | percent disease control, rice blast (Pyricularia oyrzae) [%] | percent disease control, tomato late blight (Phytophthora infestans) [%] | percent disease control, grape downy mildew (Plasmopara viticola) [%] | percent disease control, wheat powdery mildew [1] [%] |
| --- | --- | --- | --- | --- |
| CNC(=O)C(=NOC)c1ccccc1CON=C(C)C1CC1(C)c1ccccc1 (stereo not drawn) [Compound 3.11, (E,E and Z,E)-N-Methyl 2-[2-((trans-1-(2-phenyl-2-methyl-cyclopropyl)ethylidene)aminooxymethyl)phenyl]-2-methoxyiminoacetamide] | ≥ 95 | ≥ 95 |  |  |
| CNC(=O)/C(=N/OC)c1ccccc1CO/N=C(\C)C1CC1(C)c1ccc(Cl)cc1 (centres unmarked) [Compound 3.14A, (E,E)-N-Methyl 2-[2-((1-(2-(4′-chlorophenyl)-2-methylcyclopropyl)ethylidene)aminooxymethyl)phenyl]-2-methoxyiminoacetamide] | ≥ 95 | ≥ 95 |  |  |
| CON=C(C(=O)OC)c1ccccc1CON=C(C)C1CC1c1c(Cl)cccc1Cl (stereo not drawn) [Compound 8.1, Methyl 2-[2-((trans-1-(2-(2′,6′-dichlorophenyl)cyclopropyl)ethylidene)aminooxymethyl)phenyl]-2-methoxyiminoacetate] | ≥ 95 | ≥ 95 |  |  |
| CNC(=O)C(=NOC)c1ccccc1CON=C(C)C1CC1c1c(Cl)cccc1Cl (stereo not drawn) [Compound 9.1, N-Methyl 2-[2-((trans-1-(2-(2′,6′-dichlorophenyl)cyclopropyl)ethylidene)aminooxymethyl)phenyl]-2-methoxyiminoacetamide] | ≥ 95 | ≥ 95 | ≥ 100 | ≥ 90 |
| CNC(=O)C(=NOC)c1ccccc1CON=C(C)C1CC1c1c(F)cccc1F (stereo not drawn) [Compound 9.7A, N-Methyl 2-[2-((trans-1-(2-(2′,6′-difluorophenyl)cyclopropyl)ethylidene)aminooxymethyl)phenyl]-2-methoxyiminoacetamide] | ≥ 95 | ≥ 95 | ≥ 100 | ≥ 90 |
